PubChem BioAssay AID1224830 – NIAID | 2016
Screen: 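Genes whose knock-down alters the TNF-alpha reporter response to LPS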 (primary screen). System: human THP-1 monocytic leukaemia cells, TNF dual-luciferase reporter clone, PMA-differentiated to macrophage-like cells. Reagent: siRNA pool against human genes, 50 nM. Time to read-out: LPS for 4 h, given about 3 days after siRNA transfection. Conditions: bacterial LPS (TLR4 ligand), 10 ng/ml. Read-out: 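Ratio of firefly to renilla light, scaled to the plate median and expressed as a robust z-score per replicate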. Scale: TNF reporter robust z-score: higher = stronger TNF reporter response to LPS. Rule for the call: 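a well is active when its z-score exceeds 2.8 or falls below -1.5; control wells carry no call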.
The whole screen tested about 18,000 reagents; this is a random part of them. Of all reagents, about 2,900 (16%) got an active call. 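Calls are made per well; low scores hint the gene aids the LPS response, high scores that it dampens it.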 Unmarked entries are inactive. Repeated entries: four replicate wells of each siRNA pool.

| Gene | TNF reporter robust z-score |
| --- | --- |
| PTGR2 (prostaglandin reductase 2) | -1.48 |
| PTGR2 (prostaglandin reductase 2) | -0.96 |
| PTGR2 (prostaglandin reductase 2) | -1.24 |
| PTGR2 (prostaglandin reductase 2) | -0.24 |
| ACSM6 (acyl-CoA synthetase medium chain family member 6) | -0.38 |
| ACSM6 (acyl-CoA synthetase medium chain family member 6) | -0.8 |
| ACSM6 (acyl-CoA synthetase medium chain family member 6) | 0.03 |
| ACSM6 (acyl-CoA synthetase medium chain family member 6) | 0.97 |
| RBM19 (RNA binding motif protein 19) | -0.06 |
| RBM19 (RNA binding motif protein 19) | -0.11 |
| RBM19 (RNA binding motif protein 19) | -0.58 |
| RBM19 (RNA binding motif protein 19) | 0.62 |
| ZFR2 (zinc finger RNA binding protein 2) | 0.28 |
| ZFR2 (zinc finger RNA binding protein 2) | 0.69 |
| ZFR2 (zinc finger RNA binding protein 2) | 0.9 |
| ZNF772 (zinc finger protein 772) | -0.22 |
| ZNF772 (zinc finger protein 772) | -0.78 |
| ZNF772 (zinc finger protein 772) | -0.61 |
| ZNF772 (zinc finger protein 772) | 0 |
| SIPA1L3 (signal induced proliferation associated 1 like 3) | 0.19 |
| SIPA1L3 (signal induced proliferation associated 1 like 3) | 0.24 |
| SIPA1L3 (signal induced proliferation associated 1 like 3) | 0.03 |
| SIPA1L3 (signal induced proliferation associated 1 like 3) | -1.22 |
| OLFM4 (olfactomedin 4) | -0.87 |
| OLFM4 (olfactomedin 4) | -0.17 |
| OLFM4 (olfactomedin 4) | -0.63 |
| OLFM4 (olfactomedin 4) | 0.14 |
| FBXW10B (F-box and WD repeat domain containing 10B) | -0.75 |
| FBXW10B (F-box and WD repeat domain containing 10B) | 0.28 |
| FBXW10B (F-box and WD repeat domain containing 10B) | -0.84 |
| FBXW10B (F-box and WD repeat domain containing 10B) | 0.14 |
| SLC1A6 | -1.53 (active) |
| SLC1A6 | -0.65 |
| SLC1A6 | -1.19 |
| SLC1A6 | -1.64 (active) |
| PCDHB2 (protocadherin beta 2) | -0.25 |
| PCDHB2 (protocadherin beta 2) | 1.06 |
| PCDHB2 (protocadherin beta 2) | 0.85 |
| PCDHB2 (protocadherin beta 2) | 0.97 |
| ADAMTSL2 (ADAMTS like 2) | 0.14 |
| ADAMTSL2 (ADAMTS like 2) | 0.57 |
| ADAMTSL2 (ADAMTS like 2) | 0.51 |
| ADAMTSL2 (ADAMTS like 2) | -0.11 |
| ARL1 (ARF like GTPase 1) | -0.21 |
| ARL1 (ARF like GTPase 1) | 0.92 |
| ARL1 (ARF like GTPase 1) | 1.29 |
| ARL1 (ARF like GTPase 1) | 1.1 |
| CSRP1 (cysteine and glycine rich protein 1) | 0.9 |
| CSRP1 (cysteine and glycine rich protein 1) | 1.26 |
| CSRP1 (cysteine and glycine rich protein 1) | 1.94 |
| CSRP1 (cysteine and glycine rich protein 1) | 0.45 |
| EGFL7 (EGF like domain multiple 7) | 1.78 |
| EGFL7 (EGF like domain multiple 7) | 1.53 |
| EGFL7 (EGF like domain multiple 7) | 0.8 |
| EGFL7 (EGF like domain multiple 7) | 0.39 |
| CCDC85A (coiled-coil domain containing 85A) | 1.35 |
| CCDC85A (coiled-coil domain containing 85A) | 0.21 |
| CCDC85A (coiled-coil domain containing 85A) | 0.48 |
| CCDC85A (coiled-coil domain containing 85A) | 0.49 |
| LYSMD2 (LysM domain containing 2) | 2.64 |
| LYSMD2 (LysM domain containing 2) | 1.59 |
| LYSMD2 (LysM domain containing 2) | 0.6 |
| LYSMD2 (LysM domain containing 2) | -0.9 |
| TSGA13 (testis specific 13) | 1.51 |
| TSGA13 (testis specific 13) | 1.5 |
| TSGA13 (testis specific 13) | 0.65 |
| TSGA13 (testis specific 13) | 0.84 |
| NR2F1 (nuclear receptor subfamily 2 group F member 1) | 0.38 |
| NR2F1 (nuclear receptor subfamily 2 group F member 1) | -0.6 |
| NR2F1 (nuclear receptor subfamily 2 group F member 1) | -0.01 |
| NR2F1 (nuclear receptor subfamily 2 group F member 1) | -0.39 |
| NDRG4 (NDRG family member 4) | 0.85 |
| NDRG4 (NDRG family member 4) | -1.33 |
| NDRG4 (NDRG family member 4) | -0.07 |
| NDRG4 (NDRG family member 4) | 0.09 |
